## Library screening results

Sequences of proteins named here, by UniProt entry; tags and fusion partners are left off.
UniProt E9BF75, entry or part of it: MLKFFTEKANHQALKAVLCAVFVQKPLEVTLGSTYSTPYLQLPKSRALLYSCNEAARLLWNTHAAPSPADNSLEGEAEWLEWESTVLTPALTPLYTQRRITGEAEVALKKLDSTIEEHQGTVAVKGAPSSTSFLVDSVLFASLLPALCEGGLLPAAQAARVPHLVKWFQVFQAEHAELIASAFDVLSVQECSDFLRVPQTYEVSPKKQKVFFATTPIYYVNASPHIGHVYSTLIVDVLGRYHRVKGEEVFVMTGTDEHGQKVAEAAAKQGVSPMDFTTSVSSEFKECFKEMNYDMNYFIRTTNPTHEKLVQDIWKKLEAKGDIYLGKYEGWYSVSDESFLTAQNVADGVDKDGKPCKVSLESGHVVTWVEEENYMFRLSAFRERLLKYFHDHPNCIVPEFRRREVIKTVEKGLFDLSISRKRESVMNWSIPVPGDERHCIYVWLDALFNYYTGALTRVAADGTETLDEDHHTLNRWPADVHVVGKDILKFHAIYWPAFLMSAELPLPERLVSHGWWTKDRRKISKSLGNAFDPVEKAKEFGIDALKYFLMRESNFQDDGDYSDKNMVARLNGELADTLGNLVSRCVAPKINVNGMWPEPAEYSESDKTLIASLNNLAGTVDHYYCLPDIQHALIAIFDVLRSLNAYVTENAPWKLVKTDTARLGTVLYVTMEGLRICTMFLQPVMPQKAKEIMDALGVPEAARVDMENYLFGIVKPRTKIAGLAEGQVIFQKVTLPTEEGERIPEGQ

LdMetRS: 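Primary screen of methionyl-tRNA synthetase; the read-out is not stated. Target: Methionyl-tRNA synthetase (putative), Leishmania donovani (UniProt E9BF75). The test concentration is not given. The values are filed as inhibition. About 68,000 compounds were tested under these conditions; 0.035% (about 24) showed 50% or more at least once.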
Mtb heat-shock: 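Assay on Mycobacterium tuberculosis, filed only as a heat shock assay from Cornell; the read-out is not stated. The concentration is filed as 10 mM, unlikely as a test dose, so the dose is not known. The record gives no direction; compounds that gave an IC50 in retests scored well above the rest, so higher reads as stronger inhibition. Size under these conditions: about 69,000 compounds, about 930 of them at 50% or above in at least one test.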

All values are in %. The record does not define 0% and 100%; most values in the screen are far below 50% and negative numbers occur (in some assays of this library far below -100). Compounds were drawn at random from those tested, without regard to their results.

With O=C(Nc1cc(-c2cccnc2)no1)C1CCCCC1 the screen gave LdMetRS: 15.04%; Mtb heat-shock: -3.674%.
With O=C(c1ccncc1)N1CCCC(c2cc(C(F)F)n3ncnc3n2)C1 (stereo unspecified) the screen gave LdMetRS: 7.812%; Mtb heat-shock: -20.33%.
With O=C(O)c1ccnc(SCc2ccccc2)c1 the screen gave LdMetRS: 4.673%; Mtb heat-shock: -18.65%.
With O=C(c1cnccn1)N1CCOC2(CCN(Cc3ccsc3)CC2)C1 the screen gave LdMetRS: 16.32%.
With O=C(CN1CCOCC1)N1CCN(C2CCc3ccc(F)cc32)CC1 (stereo unspecified) the screen gave LdMetRS: 1.63%; Mtb heat-shock: -24.73%.
With CNC(=O)CS(=O)(=O)Cc1cc(Cl)c2c(c1)OCCCO2 the screen gave LdMetRS: 2.347%; Mtb heat-shock: 14.94%.
With O=c1c2sccc2nc2n1CCN(Cc1ccsc1)CC2 the screen gave LdMetRS: 6.472%.
With Cc1cnn(CC2CCCN2C(=O)c2cc3c(F)cccc3[nH]2)c1 (stereo unspecified) the screen gave LdMetRS: 11.5%; Mtb heat-shock: 27.74%.
With CCOCC1CN(Cc2ccc(F)cc2)Cc2nn(C)cc21.O=C(O)C(F)(F)F (stereo unspecified) the screen gave Mtb heat-shock: -29.18%.
With COc1cccc(OC2CN(C(=O)c3cc(CC(C)C)nn3C)C2)c1 the screen gave LdMetRS: 16.53%; Mtb heat-shock: -12.92%.
With CC(C(=O)N1CCN(C(=O)c2ccc(F)cc2)CC1)n1ccnc1 (stereo unspecified) the screen gave LdMetRS: 10.07%; Mtb heat-shock: 25.74%.
With O=C(NCCc1nc(-c2cccnc2)no1)c1ccc(C2CCCO2)s1 (stereo unspecified) the screen gave Mtb heat-shock: -7.752%.
With COc1cccc(CC(=O)N2CCN(C)c3ncccc3C2)c1.O=C(O)C(F)(F)F the screen gave Mtb heat-shock: -26.58%.
With COCCCNc1c(C#N)c2c(c3nncn13)CN(C)CC2 the screen gave LdMetRS: 13.99%.
With [H][C@@]12CN(CC3CCOCC3)C[C@]1([H])OCCN2c1ccnc(N(C)C)n1 the screen gave Mtb heat-shock: -28.08%.
With Cc1cc(C)n(-c2ccc(CNCc3cccc(C#N)c3)cn2)n1 the screen gave LdMetRS: 18.58%; Mtb heat-shock: -3.434%.
With [H][C@]12CC[C@]([H])(CN(S(=O)(=O)N(C)C)C1)N(Cc1ccc3c(c1)OCCO3)C2 the screen gave Mtb heat-shock: 8.504%.
With Cc1cn(-c2ccccc2)nc1NS(=O)(=O)c1ccc(C(=O)O)cc1 the screen gave LdMetRS: 13.91%; Mtb heat-shock: 17.52%.
With CCOc1ccc(C(=O)N2C[C@H]3CC[C@@H]2CN(C)C3)cc1OCC the screen gave LdMetRS: 14.37%.
With CNC(=O)C1CCCN(C(=O)c2ccccc2-n2cc(CN)cn2)C1 (stereo unspecified) the screen gave LdMetRS: 4.724%; Mtb heat-shock: 23.25%.
With c1cnn(-c2ccc(CN3CCOC(Cn4cncn4)C3)cc2)c1 (stereo unspecified) the screen gave LdMetRS: 8.92%; Mtb heat-shock: 0.5152%.
With Cc1ccccc1OCCCC(=O)NCC1CN(C)CCO1 (stereo unspecified) the screen gave LdMetRS: 13.72%; Mtb heat-shock: 3.997%.
With Cc1ccc(Cl)c(NC(=O)c2cccc(CN3CC[C@H](O)C3)c2)c1 the screen gave LdMetRS: 8.04%; Mtb heat-shock: 3.119%.
With NC(=O)CN1CCC(NC(=O)N2CCCC2c2ccsc2)CC1 (stereo unspecified) the screen gave LdMetRS: 7.246%; Mtb heat-shock: 13.61%.
With CC1CN(c2ncccc2C(=O)N[C@@H]2CCCc3ccccc32)CCN1 (stereo partly specified) the screen gave LdMetRS: 15.28%; Mtb heat-shock: 20.61%.
With O=C(O)C(F)(F)F.O=C(O)C(F)(F)F.[H][C@@]12C[C@@H](OCc3ccccn3)CN1CCN(c1ncccn1)C2 the screen gave Mtb heat-shock: -15.78%.
With CCc1cnc2c(c1Nc1cccc(OC)c1)c(=O)n(C)c(=O)n2C the screen gave LdMetRS: 12.96%; Mtb heat-shock: 22.09%.
With O=C(O)C(F)(F)F.[H][C@@]12COC[C@]1(c1nnc(C)o1)CN(Cc1nccs1)C2 the screen gave Mtb heat-shock: -25.39%.
With Cn1cnnc1-c1cncc(NCc2ccccc2Br)c1 the screen gave LdMetRS: 5.759%; Mtb heat-shock: -42.28%.
With CC1CCN(c2ncc(C#N)c(N)n2)CC1 the screen gave LdMetRS: 16.94%; Mtb heat-shock: 26.92%.

The first 2 entries again:

Compound	LdMetRS	Mtb heat-shock
O=C(Nc1cc(-c2cccnc2)no1)C1CCCCC1	15.04%	-3.674%
O=C(c1ccncc1)N1CCCC(c2cc(C(F)F)n3ncnc3n2)C1 (stereo unspecified)	7.812%	-20.33%

Source: ChEMBL document CHEMBL3988442, “University of Dundee, Small-Polar-MMV Screening Library” (2021).